log2 fold change data for 32 targets are collected here from the supplement of paper PMC10849652.

Sequences of proteins named here, by UniProt entry; tags and fusion partners are left off. A change or cut given only in a name is not applied to a line headed by its entry.
UniProt Q9H999: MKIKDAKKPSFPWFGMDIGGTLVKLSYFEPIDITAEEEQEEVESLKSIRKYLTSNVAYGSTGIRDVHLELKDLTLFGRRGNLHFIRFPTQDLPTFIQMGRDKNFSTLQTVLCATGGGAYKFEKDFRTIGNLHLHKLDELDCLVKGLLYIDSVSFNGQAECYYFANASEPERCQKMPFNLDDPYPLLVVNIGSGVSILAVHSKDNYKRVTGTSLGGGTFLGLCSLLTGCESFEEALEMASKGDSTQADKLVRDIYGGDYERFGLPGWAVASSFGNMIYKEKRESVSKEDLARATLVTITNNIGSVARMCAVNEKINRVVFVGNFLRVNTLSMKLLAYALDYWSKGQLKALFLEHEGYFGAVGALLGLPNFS
UniProt Q99497, whole entry, looked up: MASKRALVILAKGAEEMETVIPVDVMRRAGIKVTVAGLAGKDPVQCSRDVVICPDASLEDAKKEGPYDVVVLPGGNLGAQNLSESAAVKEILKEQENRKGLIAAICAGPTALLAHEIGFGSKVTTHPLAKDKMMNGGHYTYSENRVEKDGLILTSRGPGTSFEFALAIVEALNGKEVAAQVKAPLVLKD
UniProt Q9H4L5: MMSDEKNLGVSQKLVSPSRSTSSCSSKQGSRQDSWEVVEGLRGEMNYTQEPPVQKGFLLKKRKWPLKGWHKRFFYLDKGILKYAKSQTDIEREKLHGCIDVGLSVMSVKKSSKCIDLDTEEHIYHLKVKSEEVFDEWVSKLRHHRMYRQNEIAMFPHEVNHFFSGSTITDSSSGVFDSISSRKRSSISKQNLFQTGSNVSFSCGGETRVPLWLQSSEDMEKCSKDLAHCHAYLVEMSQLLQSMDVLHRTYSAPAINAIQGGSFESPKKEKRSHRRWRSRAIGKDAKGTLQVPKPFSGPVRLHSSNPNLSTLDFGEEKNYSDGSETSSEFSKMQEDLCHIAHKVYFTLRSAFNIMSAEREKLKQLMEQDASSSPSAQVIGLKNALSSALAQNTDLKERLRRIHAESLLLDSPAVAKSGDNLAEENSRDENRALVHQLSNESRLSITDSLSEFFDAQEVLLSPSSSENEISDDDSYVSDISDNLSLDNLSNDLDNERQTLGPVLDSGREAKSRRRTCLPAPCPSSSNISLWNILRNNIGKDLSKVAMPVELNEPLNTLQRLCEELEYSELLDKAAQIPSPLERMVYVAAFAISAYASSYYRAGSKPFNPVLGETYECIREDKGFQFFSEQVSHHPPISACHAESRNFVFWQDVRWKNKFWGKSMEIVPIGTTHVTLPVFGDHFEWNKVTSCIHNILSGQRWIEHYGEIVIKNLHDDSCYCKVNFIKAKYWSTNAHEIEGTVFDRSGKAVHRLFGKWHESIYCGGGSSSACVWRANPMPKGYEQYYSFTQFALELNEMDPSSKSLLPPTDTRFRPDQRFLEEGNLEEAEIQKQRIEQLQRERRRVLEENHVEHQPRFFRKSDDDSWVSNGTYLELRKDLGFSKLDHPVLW
UniProt Q9BTK6, whole entry, looked up: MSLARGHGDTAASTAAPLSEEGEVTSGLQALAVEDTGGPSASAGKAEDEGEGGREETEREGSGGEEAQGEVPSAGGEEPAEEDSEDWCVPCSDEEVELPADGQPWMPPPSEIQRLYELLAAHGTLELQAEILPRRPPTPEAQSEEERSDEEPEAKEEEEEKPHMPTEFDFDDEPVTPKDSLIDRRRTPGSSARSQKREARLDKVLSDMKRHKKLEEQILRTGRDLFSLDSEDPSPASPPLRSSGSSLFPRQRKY
UniProt Q96BN8, whole entry, looked up: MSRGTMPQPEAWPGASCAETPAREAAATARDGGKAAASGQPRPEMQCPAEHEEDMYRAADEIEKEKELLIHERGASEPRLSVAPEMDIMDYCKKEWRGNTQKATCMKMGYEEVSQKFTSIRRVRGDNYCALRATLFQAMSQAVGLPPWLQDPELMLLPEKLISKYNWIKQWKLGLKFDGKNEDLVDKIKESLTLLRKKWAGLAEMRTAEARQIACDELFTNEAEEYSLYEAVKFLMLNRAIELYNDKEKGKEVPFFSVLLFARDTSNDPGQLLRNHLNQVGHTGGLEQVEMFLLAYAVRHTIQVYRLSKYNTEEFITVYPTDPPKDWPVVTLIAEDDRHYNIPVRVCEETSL
UniProt Q8N1F7: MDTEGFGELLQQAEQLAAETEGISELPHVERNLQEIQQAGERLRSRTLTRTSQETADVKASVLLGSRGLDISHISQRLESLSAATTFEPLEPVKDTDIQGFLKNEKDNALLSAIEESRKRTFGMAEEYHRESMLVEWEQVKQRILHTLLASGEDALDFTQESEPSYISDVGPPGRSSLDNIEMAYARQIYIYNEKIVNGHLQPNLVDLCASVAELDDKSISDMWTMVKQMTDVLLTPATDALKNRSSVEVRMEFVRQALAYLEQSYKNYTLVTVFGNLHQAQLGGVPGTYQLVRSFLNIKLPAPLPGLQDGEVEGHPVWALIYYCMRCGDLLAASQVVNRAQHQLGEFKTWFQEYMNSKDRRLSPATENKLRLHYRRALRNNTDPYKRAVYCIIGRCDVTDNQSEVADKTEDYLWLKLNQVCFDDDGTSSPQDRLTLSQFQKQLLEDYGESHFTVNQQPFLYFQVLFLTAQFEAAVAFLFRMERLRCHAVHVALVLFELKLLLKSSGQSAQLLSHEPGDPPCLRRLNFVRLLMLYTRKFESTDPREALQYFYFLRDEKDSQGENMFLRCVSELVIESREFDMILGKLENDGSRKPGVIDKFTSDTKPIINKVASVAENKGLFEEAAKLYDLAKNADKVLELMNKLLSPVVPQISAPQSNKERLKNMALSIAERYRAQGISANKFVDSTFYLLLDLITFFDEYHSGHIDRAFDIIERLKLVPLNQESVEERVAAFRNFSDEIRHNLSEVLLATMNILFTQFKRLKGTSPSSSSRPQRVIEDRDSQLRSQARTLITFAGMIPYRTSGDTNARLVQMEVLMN
UniProt Q15102: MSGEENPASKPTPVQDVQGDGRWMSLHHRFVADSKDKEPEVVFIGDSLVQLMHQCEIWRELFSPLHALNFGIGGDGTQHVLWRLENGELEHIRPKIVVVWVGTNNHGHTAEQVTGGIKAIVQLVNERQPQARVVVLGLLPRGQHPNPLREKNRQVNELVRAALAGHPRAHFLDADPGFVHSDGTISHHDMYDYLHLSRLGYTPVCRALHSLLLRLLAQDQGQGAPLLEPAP
UniProt Q9NZT2: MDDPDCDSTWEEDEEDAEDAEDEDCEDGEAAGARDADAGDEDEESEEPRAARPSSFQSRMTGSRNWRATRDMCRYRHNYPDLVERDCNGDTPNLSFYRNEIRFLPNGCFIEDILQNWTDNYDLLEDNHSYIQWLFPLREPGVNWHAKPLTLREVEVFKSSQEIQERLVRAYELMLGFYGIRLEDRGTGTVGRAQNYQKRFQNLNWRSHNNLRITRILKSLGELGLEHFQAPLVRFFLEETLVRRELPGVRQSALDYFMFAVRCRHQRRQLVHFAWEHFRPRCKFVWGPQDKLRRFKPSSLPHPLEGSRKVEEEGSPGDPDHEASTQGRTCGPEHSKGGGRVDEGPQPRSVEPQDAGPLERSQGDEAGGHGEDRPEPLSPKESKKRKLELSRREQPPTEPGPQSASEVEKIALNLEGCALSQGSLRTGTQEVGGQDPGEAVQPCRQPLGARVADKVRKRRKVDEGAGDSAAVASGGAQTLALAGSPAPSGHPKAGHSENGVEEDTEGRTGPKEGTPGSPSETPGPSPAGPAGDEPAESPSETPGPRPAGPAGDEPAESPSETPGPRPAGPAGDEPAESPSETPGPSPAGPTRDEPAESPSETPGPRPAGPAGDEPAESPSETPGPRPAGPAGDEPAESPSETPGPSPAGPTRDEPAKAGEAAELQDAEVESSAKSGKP
UniProt Q9UNF0: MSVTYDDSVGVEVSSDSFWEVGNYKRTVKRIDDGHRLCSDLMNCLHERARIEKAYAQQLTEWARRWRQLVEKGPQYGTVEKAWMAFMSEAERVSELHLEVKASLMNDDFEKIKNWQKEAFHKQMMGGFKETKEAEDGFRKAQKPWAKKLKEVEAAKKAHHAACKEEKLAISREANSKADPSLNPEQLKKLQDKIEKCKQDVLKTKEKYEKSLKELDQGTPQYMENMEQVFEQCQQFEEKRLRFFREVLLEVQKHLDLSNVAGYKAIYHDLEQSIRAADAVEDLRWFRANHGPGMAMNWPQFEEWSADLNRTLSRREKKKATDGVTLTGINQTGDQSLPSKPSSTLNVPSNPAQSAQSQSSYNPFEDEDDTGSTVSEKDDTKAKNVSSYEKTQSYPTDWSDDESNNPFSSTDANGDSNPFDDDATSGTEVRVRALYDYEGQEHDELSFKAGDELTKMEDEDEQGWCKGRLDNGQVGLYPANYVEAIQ
UniProt Q96E52: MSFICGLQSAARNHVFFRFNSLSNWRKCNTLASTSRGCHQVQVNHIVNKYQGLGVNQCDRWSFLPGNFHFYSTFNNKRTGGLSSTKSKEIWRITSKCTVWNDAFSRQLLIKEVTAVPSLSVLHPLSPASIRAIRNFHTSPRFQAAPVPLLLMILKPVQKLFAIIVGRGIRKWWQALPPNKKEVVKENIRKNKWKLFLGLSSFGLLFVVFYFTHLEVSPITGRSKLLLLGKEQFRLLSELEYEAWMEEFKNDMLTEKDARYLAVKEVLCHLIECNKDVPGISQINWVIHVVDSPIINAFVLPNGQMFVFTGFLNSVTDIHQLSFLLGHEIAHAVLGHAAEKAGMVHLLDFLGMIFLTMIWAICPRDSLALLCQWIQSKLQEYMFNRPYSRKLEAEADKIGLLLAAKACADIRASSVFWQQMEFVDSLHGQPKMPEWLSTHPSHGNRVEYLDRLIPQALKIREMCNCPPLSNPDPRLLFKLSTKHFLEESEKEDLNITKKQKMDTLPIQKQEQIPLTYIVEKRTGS
UniProt Q9BZF3: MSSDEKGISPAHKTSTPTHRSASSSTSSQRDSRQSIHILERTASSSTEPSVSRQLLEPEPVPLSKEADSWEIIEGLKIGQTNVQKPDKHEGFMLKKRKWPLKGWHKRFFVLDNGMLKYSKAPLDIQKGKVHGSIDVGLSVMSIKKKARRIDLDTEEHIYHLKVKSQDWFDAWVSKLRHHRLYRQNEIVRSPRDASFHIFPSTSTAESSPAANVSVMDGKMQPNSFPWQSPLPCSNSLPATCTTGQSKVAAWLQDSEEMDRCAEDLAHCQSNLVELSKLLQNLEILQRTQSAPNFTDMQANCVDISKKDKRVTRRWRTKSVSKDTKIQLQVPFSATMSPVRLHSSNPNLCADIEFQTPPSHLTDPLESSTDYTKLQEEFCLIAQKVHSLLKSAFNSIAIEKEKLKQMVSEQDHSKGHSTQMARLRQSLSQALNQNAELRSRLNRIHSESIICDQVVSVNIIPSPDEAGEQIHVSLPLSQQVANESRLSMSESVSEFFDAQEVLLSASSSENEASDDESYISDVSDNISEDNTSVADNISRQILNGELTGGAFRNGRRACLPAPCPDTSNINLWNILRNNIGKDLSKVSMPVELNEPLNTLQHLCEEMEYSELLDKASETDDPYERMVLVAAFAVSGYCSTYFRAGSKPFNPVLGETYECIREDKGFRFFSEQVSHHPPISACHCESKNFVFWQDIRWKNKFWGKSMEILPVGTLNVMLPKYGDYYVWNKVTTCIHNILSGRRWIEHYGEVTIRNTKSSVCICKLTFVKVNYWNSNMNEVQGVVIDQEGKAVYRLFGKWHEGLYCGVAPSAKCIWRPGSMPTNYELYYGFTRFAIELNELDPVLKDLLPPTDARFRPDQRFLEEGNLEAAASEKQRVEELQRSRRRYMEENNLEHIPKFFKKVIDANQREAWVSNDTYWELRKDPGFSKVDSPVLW
UniProt Q13416: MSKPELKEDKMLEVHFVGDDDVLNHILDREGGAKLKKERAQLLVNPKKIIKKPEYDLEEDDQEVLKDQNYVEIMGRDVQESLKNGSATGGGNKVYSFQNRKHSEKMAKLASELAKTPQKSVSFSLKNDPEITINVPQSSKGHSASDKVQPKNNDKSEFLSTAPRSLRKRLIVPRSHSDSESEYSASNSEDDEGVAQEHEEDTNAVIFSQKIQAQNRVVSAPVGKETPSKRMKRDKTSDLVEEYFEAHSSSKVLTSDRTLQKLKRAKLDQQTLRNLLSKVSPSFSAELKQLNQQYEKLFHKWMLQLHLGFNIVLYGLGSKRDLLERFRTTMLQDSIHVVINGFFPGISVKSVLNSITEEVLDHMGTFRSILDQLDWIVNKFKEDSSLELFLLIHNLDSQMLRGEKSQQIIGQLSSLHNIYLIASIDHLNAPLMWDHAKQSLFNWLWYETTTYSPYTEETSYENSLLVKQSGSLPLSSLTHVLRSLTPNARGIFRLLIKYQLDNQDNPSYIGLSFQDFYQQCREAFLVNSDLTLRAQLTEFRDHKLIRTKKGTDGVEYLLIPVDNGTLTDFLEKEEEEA
UniProt Q9Y5N6: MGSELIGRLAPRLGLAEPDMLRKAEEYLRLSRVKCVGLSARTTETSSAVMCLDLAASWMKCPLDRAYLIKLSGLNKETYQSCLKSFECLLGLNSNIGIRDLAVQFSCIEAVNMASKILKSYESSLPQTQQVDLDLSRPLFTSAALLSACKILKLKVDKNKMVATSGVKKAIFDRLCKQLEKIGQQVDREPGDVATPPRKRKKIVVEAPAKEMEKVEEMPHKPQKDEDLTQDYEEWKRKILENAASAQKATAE

Some of the results follow.

Compound in one experiment: C1=CC=C(C=C1)[C@H](COC2=CC3=C(C=C2)NC(=O)N3)NC(=O)C4=CC=CN(C4=O)CC5=CC(=C(C=C5)F)F
Nature of the experiment: log2 fold change, soluble protein after heating vs DMSO (PISA); higher = thermal stabilisation; K562 lysate, 10 uM; active = over 0.2 and 3.5 SD of the protein, either way, in both replicates (recomputed). An outline of the steps: (§1)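 Soluble protein was defined as the supernatant remaining after 21,000xg for 90 min, following pooling of heated aliquots and adjustment to 0.5% NP-40 at 4°C. Before that, crude K562 extract at 1 mg/mL protein in PBS pH 7.4 with 1 mM MgCl2 was treated with 10 μM compound for 30 min and heated for 3 min across 48°C-58°C. Quantification used TMTpro 16plex LC-MS/MS with channel sums equalised, and values are log-two fold changes in thermal stability relative to solvent controls from duplicates.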
PANK3 (UniProt Q9H999): the log2 fold change is inactive: 0.079.
PARK7 (UniProt Q99497): the log2 fold change was inactive: -0.035.
The same measure, in the same setting: under OSBPL3 isoform 2 (UniProt Q9H4L5) stands inactive: -0.02; under PABPC4 isoform 3 (UniProt Q13310), inactive: -0.033.
Turning to PAGR1 (UniProt Q9BTK6), the log2 fold change was inactive: -0.037.
For the target PAICS (UniProt E9PBS1), the log2 fold change is inactive: -0.321.
Consider OXA1L (UniProt Q15070), for which the log2 fold change was inactive: -0.038.
On to OTULIN (UniProt Q96BN8), for which the log2 fold change is inactive: -0.013.
The same measure, in the same setting: then NUP188 (UniProt Q5SRE5), with inactive: -0.044; and NUP54 (UniProt Q7Z3B4), with inactive: -0.006; and OTUD4 (UniProt Q01804), with inactive: 0.011.
Regarding NUP93 (UniProt Q8N1F7), the log2 fold change was inactive: -0.054.
With PARD6B (UniProt Q9BYG5), the log2 fold change is inactive: 0.032.
In the case of PAFAH1B3 (UniProt Q15102), the log2 fold change is inactive: 0.
OGFR (UniProt Q9NZT2): the log2 fold change is inactive: -0.016.
Same read-out and setting: under PACSIN2 (UniProt Q9UNF0) stands inactive: -0.024.
On the same count and under the same terms, then PAIP1 (UniProt Q9H074), with inactive: 0.005; and OMA1 (UniProt Q96E52), with inactive: 0.014.
With OIP5 (UniProt O43482), the log2 fold change was inactive: 0.047.
OSTC isoform 2 (UniProt Q9NRP0): the log2 fold change is inactive: -0.027.
As to OSBPL9 isoform 2 (UniProt Q96SU4), the log2 fold change was inactive: -0.052.
The same measure, in the same setting: under OCRL (UniProt Q01968) stands inactive: 0.018; under OTUD6B (UniProt Q8N6M0), inactive: -0.057.
As to OSTC (UniProt Q9NRP0), the log2 fold change is inactive: -0.053.
As to OSBPL6 isoform 5 (UniProt Q9BZF3), the log2 fold change is inactive: 0.014.
Take ORC2 (UniProt Q13416): the log2 fold change was inactive: -0.052.
As for OSBPL8 (UniProt Q9BZF1), the log2 fold change was inactive: -0.138.
For NUP214 (UniProt P35658), the log2 fold change is inactive: -0.032.
As to PAAF1 (UniProt Q9BRP4), the log2 fold change was inactive: 0.006.
Consider PARG (UniProt Q86W56), for which the log2 fold change was inactive: -0.011.
On to ORC6 (UniProt Q9Y5N6), for which the log2 fold change was inactive: 0.046.
For OBI1 (UniProt Q5W0B1), the log2 fold change is inactive: 0.066.

Compound in another experiment: CC1=C(SC2=C1C(=N[C@H](C3=NN=C(N32)C)CC(=O)N)C4=CC=C(C=C4)Cl)C
Described as above. An outline of the steps: as §1
Consider PANK3 (UniProt Q9H999), for which the log2 fold change is inactive: 0.
Same read-out and setting: then PARK7 (UniProt Q99497), with inactive: 0.001.
OSBPL3 isoform 2 (UniProt Q9H4L5): the log2 fold change is inactive: -0.018.
For PABPC4 isoform 3 (UniProt Q13310), the log2 fold change is inactive: 0.017.
PAGR1 (UniProt Q9BTK6): the log2 fold change was inactive: 0.065.
Consider PAICS (UniProt E9PBS1), for which the log2 fold change was inactive: 0.058.
Turning to OXA1L (UniProt Q15070), the log2 fold change was inactive: 0.037.
For the target OTULIN (UniProt Q96BN8), the log2 fold change is inactive: 0.027.
For the target NUP188 (UniProt Q5SRE5), the log2 fold change was inactive: -0.009.
With NUP54 (UniProt Q7Z3B4), the log2 fold change is inactive: 0.004.
As to OTUD4 (UniProt Q01804), the log2 fold change is inactive: 0.013.
In the case of NUP93 (UniProt Q8N1F7), the log2 fold change is inactive: -0.017.
Turning to PARD6B (UniProt Q9BYG5), the log2 fold change was inactive: 0.001.
For the target PAFAH1B3 (UniProt Q15102), the log2 fold change was inactive: 0.042.
Still for that read-out and setting: then OGFR (UniProt Q9NZT2), with inactive: 0.001.
The same measure, in the same setting: then PACSIN2 (UniProt Q9UNF0), with inactive: 0.037.
Still for that read-out and setting: then PAIP1 (UniProt Q9H074), with inactive: 0.011.
Consider OMA1 (UniProt Q96E52), for which the log2 fold change is inactive: 0.006.
As to OIP5 (UniProt O43482), the log2 fold change is inactive: -0.036.
For OSTC isoform 2 (UniProt Q9NRP0), the log2 fold change is inactive: 0.051.
As for OSBPL9 isoform 2 (UniProt Q96SU4), the log2 fold change is inactive: 0.039.
Take OCRL (UniProt Q01968): the log2 fold change was inactive: 0.056.
For OTUD6B (UniProt Q8N6M0), the log2 fold change is inactive: -0.021.
In the case of OSTC (UniProt Q9NRP0), the log2 fold change is inactive: -0.1.
For OSBPL6 isoform 5 (UniProt Q9BZF3), the log2 fold change was inactive: -0.023.
On to ORC2 (UniProt Q13416), for which the log2 fold change is inactive: -0.011.
On to OSBPL8 (UniProt Q9BZF1), for which the log2 fold change was inactive: 0.064.
NUP214 (UniProt P35658): the log2 fold change was inactive: 0.021.
As to PAAF1 (UniProt Q9BRP4), the log2 fold change is inactive: 0.008.
Turning to PARG (UniProt Q86W56), the log2 fold change is inactive: -0.006.
As for ORC6 (UniProt Q9Y5N6), the log2 fold change was inactive: 0.019.
OBI1 (UniProt Q5W0B1): the log2 fold change was inactive: -0.088.

Compound in the next experiment: CC1=C2C(=CC=C1)N=C(N(C2=O)C3=CC=CC=C3C)CN4C=NC5=C(N=CN=C54)N
The experiment is described as above. In a few lines:
as §1
For PANK3 (UniProt Q9H999), the log2 fold change is inactive: 0.023.
Still for that read-out and setting: then PARK7 (UniProt Q99497), with inactive: 0.006; and OSBPL3 isoform 2 (UniProt Q9H4L5), with inactive: 0.043; and PABPC4 isoform 3 (UniProt Q13310), with inactive: -0.002.
PAGR1 (UniProt Q9BTK6): the log2 fold change is inactive: 0.011.
On to PAICS (UniProt E9PBS1), for which the log2 fold change is inactive: 0.01.
With OXA1L (UniProt Q15070), the log2 fold change is inactive: 0.005.
On to OTULIN (UniProt Q96BN8), for which the log2 fold change is inactive: 0.06.
Consider NUP188 (UniProt Q5SRE5), for which the log2 fold change was inactive: 0.
On to NUP54 (UniProt Q7Z3B4), for which the log2 fold change is inactive: 0.014.
On to OTUD4 (UniProt Q01804), for which the log2 fold change was inactive: -0.063.
Take NUP93 (UniProt Q8N1F7): the log2 fold change is inactive: -0.006.
Regarding PARD6B (UniProt Q9BYG5), the log2 fold change is inactive: -0.015.
In the case of PAFAH1B3 (UniProt Q15102), the log2 fold change is inactive: 0.045.
For OGFR (UniProt Q9NZT2), the log2 fold change was inactive: 0.012.
In the case of PACSIN2 (UniProt Q9UNF0), the log2 fold change is inactive: 0.013.
On to PAIP1 (UniProt Q9H074), for which the log2 fold change is inactive: -0.016.
The same measure, in the same setting: under OMA1 (UniProt Q96E52) stands inactive: 0.073; under OIP5 (UniProt O43482), inactive: 0.025.
On to OSTC isoform 2 (UniProt Q9NRP0), for which the log2 fold change was inactive: 0.003.
As for OSBPL9 isoform 2 (UniProt Q96SU4), the log2 fold change was inactive: 0.002.
Regarding OCRL (UniProt Q01968), the log2 fold change is inactive: 0.003.
Consider OTUD6B (UniProt Q8N6M0), for which the log2 fold change was inactive: -0.027.
As for OSTC (UniProt Q9NRP0), the log2 fold change was inactive: 0.18.
On the same count and under the same terms, then OSBPL6 isoform 5 (UniProt Q9BZF3), with inactive: 0.02; and ORC2 (UniProt Q13416), with inactive: -0.012; and OSBPL8 (UniProt Q9BZF1), with inactive: 0.042.
On to NUP214 (UniProt P35658), for which the log2 fold change was inactive: -0.008.
Take PAAF1 (UniProt Q9BRP4): the log2 fold change was inactive: 0.007.
Regarding PARG (UniProt Q86W56), the log2 fold change was inactive: -0.005.
As for ORC6 (UniProt Q9Y5N6), the log2 fold change is inactive: -0.059.
OBI1 (UniProt Q5W0B1): the log2 fold change is inactive: 0.119.
